# PubChem BioAssay AID1224828 – NIAID, 2016
# Screen: 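Knock-downs that increase or decrease LPS-induced p65 nuclear translocation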 (primary screen)
# Cell system: mouse RAW264.7 G9 macrophage reporter cells (GFP-p65, Tnf promoter-mCherry)
# Reagent: siRNA pool against mouse genes, 100 nM
# Duration: 2 days siRNA transfection, then 40 min LPS before fixation
# Challenge: LPS (Salmonella minnesota R595) at 10 ng/ml
# Measured: 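Imaged p65 nuclear translocation ratio, normalised to the plate median, converted to robust z-scores and averaged across two replicates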
# Direction: p65 translocation robust z-score: higher = more nuclear NF-kappaB p65 after LPS than the plate median; nuclear/cytoplasmic p65 ratio: higher = more nuclear NF-kappaB p65
# Active means: 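Called active when z exceeds 3.3 or falls under -1.56 (median of Tlr4 controls), giving activity score of at least 50; no calls for control wells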
# Calls: active = hit (p65 shift raised or lowered); inactive = no clear change
# In all, the deposit lists about 17,000 reagents; this is a part drawn at random. Of all reagents, 762 (4.5%) were called active. 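Active calls include both raised and lowered p65 entry, mostly lowered; wells with fewer than 50 cells lack a z-score.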 Raw values vary from plate to plate and are shown uncorrected. The numbers tell different reagents against one gene apart. Reagent sequences are not shown.
gene,reagent,p65 translocation robust z-score,"nuclear/cytoplasmic p65 ratio, rep 1","nuclear/cytoplasmic p65 ratio, rep 2",low cell count flag,activity call
Gosr2 (golgi SNAP receptor complex member 2),1,-0.49,1.39,1.29,enough cells to score,inactive
Impa2 (inositol monophosphatase 2),1,-0.34,1.43,1.33,enough cells to score,inactive
Tff1 (trefoil factor 1),1,0.19,1.32,1.21,enough cells to score,inactive
"Nxpe2 (neurexophilin and PC-esterase domain family, member 2)",1,,1.27,1.33,fewer than 50 cells per well; well left out of scoring,inactive
Frat2 (frequently rearranged in advanced T cell lymphomas 2),1,-0.78,1.35,1.25,enough cells to score,inactive
Tcaf2 (TRPM8 channel-associated factor 2),1,-1.17,1.4,1.66,enough cells to score,inactive
"Tas2r104 (taste receptor, type 2, member 104)",1,2.24,1.65,1.19,enough cells to score,inactive
"Ntrk2 (neurotrophic tyrosine kinase, receptor, type 2)",1,1.19,1.82,1.57,enough cells to score,inactive
Akap7 (A kinase anchor protein 7),1,0.06,1.63,1.68,enough cells to score,inactive
Eif4a3 (eukaryotic translation initiation factor 4A3),1,0.5,1.64,1.62,enough cells to score,inactive
"Xpot (exportin, tRNA (nuclear export receptor for tRNAs))",1,0.76,1.63,1.6,enough cells to score,inactive
Pon3 (paraoxonase 3),1,0.4,1.55,1.46,enough cells to score,inactive
Cngb1 (cyclic nucleotide gated channel beta 1),1,0,1.45,1.99,enough cells to score,inactive
Cngb1 (cyclic nucleotide gated channel beta 1),2,-1.24,1.24,1.24,enough cells to score,inactive
"Myh4 (myosin, heavy polypeptide 4, skeletal muscle)",1,-0.15,1.39,1.35,enough cells to score,inactive
Itgb3bp (integrin beta 3 binding protein (beta3-endonexin)),1,1.15,1.74,1.83,enough cells to score,inactive
Rit1 (Ras-like without CAAX 1),1,-0.89,1.39,1.39,enough cells to score,inactive
Zkscan1 (zinc finger with KRAB and SCAN domains 1),1,,1.2,1.48,fewer than 50 cells per well; well left out of scoring,inactive
Mmp12 (matrix metallopeptidase 12),1,-0.73,1.31,1.28,enough cells to score,inactive
Arhgef7 (Rho guanine nucleotide exchange factor),1,0.52,1.66,1.74,enough cells to score,inactive
Sin3a (SIN3 transcription regulator family member A),1,0.35,1.59,1.61,enough cells to score,inactive
Rap1b (RAS related protein 1b),1,,2.12,1.34,fewer than 50 cells per well; well left out of scoring,inactive
Sh2d7 (SH2 domain containing 7),1,,1.22,1.42,fewer than 50 cells per well; well left out of scoring,inactive
"Tbc1d1 (TBC1 domain family, member 1)",1,,1.25,1.12,fewer than 50 cells per well; well left out of scoring,inactive
Bsnd (barttin CLCNK type accessory beta subunit),1,0.03,1.62,1.62,enough cells to score,inactive
"Tcl1b3 (T cell leukemia/lymphoma 1B, 3)",1,,1.59,1.17,fewer than 50 cells per well; well left out of scoring,inactive
Or6f2 (olfactory receptor family 6 subfamily F member 2),1,,1.33,1.19,fewer than 50 cells per well; well left out of scoring,inactive
Or4k77 (olfactory receptor family 4 subfamily K member 77),1,1.73,1.75,1.75,enough cells to score,inactive
Coq8b (coenzyme Q8B),1,-0.69,1.63,1.25,enough cells to score,inactive
"Gnaq (guanine nucleotide binding protein, alpha q polypeptide)",1,-0.01,1.49,1.6,enough cells to score,inactive
Ube2q2 (ubiquitin-conjugating enzyme E2Q family member 2),1,,1.39,1.05,fewer than 50 cells per well; well left out of scoring,inactive
C1d (C1D nuclear receptor co-repressor),1,0.48,1.46,1.63,enough cells to score,inactive
Pantr1,1,,1.54,1.19,fewer than 50 cells per well; well left out of scoring,inactive
Ube2b (ubiquitin-conjugating enzyme E2B),1,0.92,1.65,1.62,enough cells to score,inactive
Mmp25 (matrix metallopeptidase 25),1,-0.37,1.4,1.29,enough cells to score,inactive
Tlr13 (toll-like receptor 13),1,-1.36,1.15,1.08,enough cells to score,inactive
"Pdk4 (pyruvate dehydrogenase kinase, isoenzyme 4)",1,-0.02,1.63,1.42,enough cells to score,inactive
Fam3a (FAM3 metabolism regulating signaling molecule A),1,,2.03,1.41,fewer than 50 cells per well; well left out of scoring,inactive
Or1o4 (olfactory receptor family 1 subfamily O member 4),1,,1.36,1.06,fewer than 50 cells per well; well left out of scoring,inactive
Rpl32 (ribosomal protein L32),1,,1.28,1.1,fewer than 50 cells per well; well left out of scoring,inactive
